Test results reported in PubChem BioAssay AID493014 (National Center for Advancing Translational Sciences (NCATS), 2011).
About 170 (0.05%) of roughly 340,000 compounds were called active. The inconclusive results got no clear call from the source; some entries with a clear call stand among them for comparison. Calls follow the shape of the dose curve; as a rule, active = well fitted inhibition curve with a large enough effect in the signal ratio, with a control signal flat (not every such curve was filed as active); inconclusive = small, poorly fitted or top-dose-only effect, or effect the other way, or a change in a side signal; inactive = flat fitted curve, though single readings scatter; the % refers to the signal ratio. Potencies of inconclusive entries are doubtful fits and often do not repeat.

Experiment: qHTS Assay to Find Inhibitors of Chronic Active B-Cell Receptor Signaling;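 as to activity change, negative = inhibition: plate controls were basal doxycycline-induced cells for no effect and cells given 10 µM MG132 for full effect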
Conditions: ABC-DLBCL IkBa-CBG/CBR reporter, luminescence ratio (green luciferase fused to IkBa over red control in TMD8 lymphoma cells), 4 h; activity change, negative = inhibition: at 46.1 µM (top of the series)
In short: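 TMD8 ABC-DLBCL cells carrying doxycycline-inducible green luciferase fused to IkappaBalpha plus unfused red luciferase were exposed to compounds (up to 46 uM) for 4 hrs at 37C. Activity came from the overlap-corrected green/red luminescence ratio.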
Potency is read from the fitted curve at half-maximal effect.

Row | SMILES | activity change, negative = inhibition | Potency
1 | CCN(CC)c1ccc(N=Nc2ncn[nH]2)cc1 | inconclusive: -1.15% | 
2 | O=C(Nc1sc2c(c1-c1nc3ccccc3[nH]1)CCCC2)C1CCCC1 | inconclusive: 15.8% | 
3 | COc1cccc(/C=N/NC(=O)c2cccc(N3CCCC3=O)c2)c1 |  | inconclusive: 12.6 µM [falling, single point]
4 | CCN(CCn1cccn1)C(=O)CC1C(=O)NCCN1CC1CCCCC1 (stereo unspecified) |  | inconclusive: 0.501 µM [falling, partial curve, poor fit]
5 | COc1ccccc1-n1c2nc3ccccc3nc2c2c(=O)n(-c3cc(C)cc(C)c3)cnc21 | inactive: -6.82% | 
6 | Cc1ccc(CN(Cc2ccco2)C(=O)c2ccco2)cc1 | inactive: -2.2% | 
7 | COc1ccccc1OCCNC1CCCC1 | inconclusive: -6.98% | 
8 | Cn1c2ccccc2c2c(C(=O)O)cn(C3CCCC3)c(=O)c21 |  | inconclusive: 16.4 µM [falling, single point]
9 | Cc1ccc(C)c(NC(=O)C2CCN(C(=O)c3cccs3)CC2)c1 | inconclusive: -0.504% | 
10 | O=C(COC(=O)C12CC3CC(CC(Br)(C3)C1)C2)Nc1ccc2[nH]c(=O)[nH]c2c1 |  | inconclusive: 8.2 µM [rising, partial curve, poor fit]
11 | Cc1nnc(SC(C)C(=O)Nc2ncc(Cl)cc2Cl)n1Cc1ccccc1 (stereo unspecified) | inactive: -8.32% | 
12 | COc1cccc2c(Cl)c(CC=C(Cl)Cl)c(C)nc12 | inactive: 8.37% | 
13 | Cc1cccc(NC(=O)/C=C/c2ccc([N+](=O)[O-])s2)c1 |  | inconclusive: 25.9 µM [falling, partial curve]
14 | Cc1ccc(NC(=O)c2ccc(OC(F)(F)F)cc2)cc1S(=O)(=O)N(C)C | inactive: -11.8% | 
15 | CCCn1c2ccccc2c2cnn(CC(=O)N(CC)CC)c(=O)c21 | inconclusive: 0.68% | 
16 | N=C1SCC(=O)N1c1ncc(Cc2ccc(F)cc2)s1 |  | inconclusive: 6.31 µM [falling, full curve]
17 | CC(Oc1ccc(Cl)cc1Cl)C(=O)Nc1ccc(S(=O)(=O)Nc2cnc3ccccc3n2)cc1 (stereo unspecified) | inactive: -13.3% | 
18 | COc1ccc(C2=CC(=O)C[C@H](c3ccc(F)cc3)C2)cc1F | inactive: 7.55% | 
19 | CCCCn1c(N)c(N(CC(C)C)C(=O)CCNC(=O)c2ccc(Cl)cc2)c(=O)[nH]c1=O | inactive: -0.63% | 
20 | CCCn1c(=N)n(CC(=O)c2ccc([N+](=O)[O-])cc2)c2ccccc21 | inconclusive: -1.11% | 
21 | CC(=O)NC1C(c2nc3ccccc3s2)=C(c2ccccc2)C(=O)N1c1ccc(C)cc1 (stereo unspecified) | inconclusive: 11.8% | 

Full records, looked up by structure.
N=C1SCC(=O)N1c1ncc(Cc2ccc(F)cc2)s1 in the list: Potency: inconclusive: 6.31 µM [falling, full curve]
CCN(CC)c1ccc(N=Nc2ncn[nH]2)cc1 in the list: activity change, negative = inhibition: inconclusive: -1.15%

(continued)

Row | SMILES | activity change, negative = inhibition | Potency
22 | O=C(NNC(=S)Nc1ccccc1)c1ccncc1 |  | inconclusive: 35.5 µM [rising, single point]
23 | CCOc1ccc2ccccc2c1C(=O)NCC(c1ccc(N(C)C)cc1)N(C)C (stereo unspecified) | inconclusive: -8.26% | 
24 | Cn1ccs/c1=N\C(=O)Nc1cccc(C(F)(F)F)c1 |  | inconclusive: 20 µM [falling, single point]
25 | O=C(Nc1cccn(Cc2cccc(F)c2)c1=O)NC1CCCCC1 | inconclusive: -0.313% | 
26 | Brc1ccc(-c2csc(N3CCCCCC3)n2)cc1 |  | inconclusive: 1.12 µM [falling, full curve]
27 | O=C1CCc2ccc(NS(=O)(=O)c3ccc(F)cc3)cc2N1 |  | inconclusive: 11.2 µM [falling, partial curve, poor fit]
28 | Cc1ccccc1CSCCNC(=O)Nc1ccccc1 | inconclusive: -14% | 
29 | Clc1ccc(OCCn2cnc3ccccc32)c(Cl)c1 | inconclusive: 1.18% | 
30 | N/C(COc1cccc(C(F)(F)F)c1)=N\NC(=O)c1cccnc1Oc1ccccc1 | inconclusive: -0.488% | 
31 | Cc1cc(C)cc(N(CC(=O)Nc2cc(C)ccc2C)S(=O)(=O)c2c(C)[nH]c(=O)[nH]c2=O)c1 | inactive: 0.253% | 
32 | Cc1ccc(NS(=O)(=O)c2cccc(C(=O)NCCc3c[nH]c4ccccc34)c2)c(C)c1 | inconclusive: 6.35% | 
33 | CCC(=O)NC(c1ccc(Cl)cc1Cl)c1ccc2cccnc2c1O (stereo unspecified) | inconclusive: -6.45% | 
34 | CN(C)C(=O)Cn1c(SCC(=O)NCc2ccc3c(c2)OCO3)nc2ccccc21 | inconclusive: 4.13% | 
35 | Cc1cc(-c2cccs2)c2c(N)c(C(=O)c3ccc4c(c3)OCO4)sc2n1 | inactive: 2.79% | 
36 | COc1ccc(NC(=O)C(=O)N/N=C(\C)CC(=O)Nc2ccccn2)c(OC)c1 |  | inconclusive: 11.2 µM [falling, partial curve, poor fit]
37 | C/C(=N\OCc1ccccc1C#N)c1cc2ccccc2o1 | inconclusive: 5.57% | 
38 | O=C(NNC(=S)NCc1ccccc1)c1ccc(Br)o1 | inactive: -0.148% | 
39 | CCc1nccn1-c1cc(C(C)(C)C)nc2c(-c3ccc(Cl)cc3)cnn12 | inactive: -5.15% | 
40 | Cc1cc(C(=O)C(C)OC(=O)c2cnccn2)c(C)n1-c1ccccc1 (stereo unspecified) | inconclusive: -26.1% | 
41 | COc1ccc(/C=C/C(=O)Nc2ccccc2C(=O)N2CCCC2)cc1 |  | inconclusive: 22.4 µM [falling, single point]
